Source: patent US20050129672, “Regulatory sequences that direct gene expression to spinal motor neurons and uses thereof” (published 2005)
For at least one entry, the source does not settle the construct or the ends of the probe. No signal at the amounts used counts as a negative.

Columns and labels:
Test in all cases: EMSA
HOXD9 + PBX1 = conditions: HP motifs mutated; none of the HOX proteins bound with PBX1; protein translated in vitro; protein details: pSG5-derived vectors, reticulocyte lysate; label: …
HOXB1 + PBX1 = conditions: HP motifs mutated; protein translated in vitro; protein details: pSG5-derived vectors, reticulocyte lysate; label: DIG
HOXC8 + PBX1 = conditions: HP motifs mutated; none of the HOX proteins bound with PBX1; protein translated in vitro; protein details: pSG5-derived vectors, reticulocyte lysate; label: …
HOXB3 + PBX1 = conditions: HP motifs mutated; protein translated in vitro; protein details: pSG5-derived vectors, reticulocyte lysate; label: DIG

Measured: binding result

GTACGTTAGCTCGTGCGTTGACAAAAACGAACGAGCTTTA (double strand) [Hb9 mutant 40 bp probe]
no binding: all assays above
